In the supplement of paper PMC4604168 (melanoma cell lines):
Some of the results follow. Repeats are few or missing, and single values can be far off.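 Imaging used 1,536-well plates; nuclei positive for cleaved PARP by antibody were divided by total DNA-stained nuclei to yield the apoptosis fraction. Doses for screening kept most cells viable, and cell lines differ markedly in resting and induced cleaved-PARP levels.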

tested on: UACC62; experiment: cleaved PARP positive nuclei fraction relative to DMSO control; melanoma cells; higher = more apoptosis; conditions: library dose: low library concentration; 72 h

Row | SMILES | cleaved PARP positive nuclei fraction [%]
1 | CC1(C)CCC(c2ccc(Cl)cc2)=C(CN2CCN(c3ccc(C(=O)NS(=O)(=O)c4ccc(N[C@H](CCN5CCOCC5)CSc5ccccc5)c(S(=O)(=O)C(F)(F)F)c4)cc3)CC2)C1 + Cc1cc([N+](=O)[O-])ccc1NS(=O)(=O)c1cc(Cl)ccc1Cl [FH535] (first compound 0.4 µM, partner dose 1 µM) | 116
2 | NC1(c2ccc(-c3nc4ccn5c(=O)[nH]nc5c4cc3-c3ccccc3)cc2)CCC1 + CC(C)(C)c1cnc(CSc2cnc(NC(=O)C3CCNCC3)s2)o1 [SNS-032] (first compound 0.4 µM, partner dose 0.01 µM) | 370
3 | CN(c1ncccc1CNc1nc(Nc2ccc3c(c2)CC(=O)N3)ncc1C(F)(F)F)S(C)(=O)=O + O=C(O)C(=O)Nc1sc2c(c1C(=O)O)CCNC2 [TCS401] (first compound 0.08 µM, partner dose 1.66667 µM) | 123
4 | NC1(c2ccc(-c3nc4ccn5c(=O)[nH]nc5c4cc3-c3ccccc3)cc2)CCC1 + COc1cc2c(Oc3ccc4[nH]c(C)cc4c3F)ncnc2cc1OCCCN1CCCC1 [cediranib] (first compound 0.4 µM, partner dose 0.4 µM) | 178
5 | CC1(C)CCC(c2ccc(Cl)cc2)=C(CN2CCN(c3ccc(C(=O)NS(=O)(=O)c4ccc(N[C@H](CCN5CCOCC5)CSc5ccccc5)c(S(=O)(=O)C(F)(F)F)c4)cc3)CC2)C1 + C=CCn1c(=O)c2cnc(Nc3ccc(N4CCN(C)CC4)cc3)nc2n1-c1cccc(C(C)(C)O)n1 [MK1775] (first compound 0.4 µM, partner dose 0.02 µM) | 88.1
6 | NC1(c2ccc(-c3nc4ccn5c(=O)[nH]nc5c4cc3-c3ccccc3)cc2)CCC1 + COc1ccc(-c2ccc3c(N4CCOCC4)nc(N4C[C@@H](C)O[C@@H](C)C4)nc3n2)cc1CO [KU0063794] (first compound 0.4 µM, partner dose 0.02 µM) | 191
7 | CS(=O)(=O)c1ccc(C(=O)Nc2ccc(Cl)c(-c3ccccn3)c2)c(Cl)c1 [vismodegib] + COC(=O)c1sccc1S(=O)(=O)Nc1ccc(Nc2ccccc2)cc1OC [GSK0660] (first compound 1 µM, partner dose 1 µM) | 104
8 | NC(=O)c1ccc(N(C(N)=O)c2c(F)cccc2F)nc1-c1ccc(F)cc1F + O=C(CCCCCCC(=O)Nc1ccccc1)NO [vorinostat] (first compound 0.4 µM, partner dose 0.08 µM) | 56.9
9 | Cn1sc(=O)n(Cc2ccccc2)c1=O + O=c1cc(-c2cccc3c2Sc2ccccc2S3)oc(N2CCOCC2)c1 [KU55933] (first compound 0.4 µM, partner dose 1 µM) | 157
10 | CCCCCCCCc1ccc(CCC(N)(CO)CO)cc1 [fingolimod] + COc1cc2ncnc(Nc3ccc(Oc4ccccc4)cc3)c2cc1OC [SrcI1] (first compound 2 µM, partner dose 2 µM) | 169
11 | NC1(c2ccc(-c3nc4ccn5c(=O)[nH]nc5c4cc3-c3ccccc3)cc2)CCC1 + Cc1ccc(NC(=O)c2cccc(N(C)C)c2)cc1NC(=O)c1ccc(O)cc1 [ZM336372] (first compound 0.4 µM, partner dose 2 µM) | 179
12 | COc1ccc(C2=N[C@@H](c3ccc(Cl)cc3)[C@@H](c3ccc(Cl)cc3)N2C(=O)N2CCNC(=O)C2)c(OC(C)C)c1 [Nutlin-3] + C[C@@H]1CCN(C(=O)CC#N)C[C@@H]1N(C)c1ncnc2[nH]ccc12 [CP690550] (first compound 0.1 µM, partner dose 1 µM) | 136
13 | CS(=O)(=O)c1ccc(C(=O)Nc2ccc(Cl)c(-c3ccccn3)c2)c(Cl)c1 [vismodegib] + CC(C)(C)c1cnc(CSc2cnc(NC(=O)C3CCNCC3)s2)o1 [SNS-032] (first compound 1 µM, partner dose 0.01 µM) | 173
14 | NC1(c2ccc(-c3nc4ccn5c(=O)[nH]nc5c4cc3-c3ccccc3)cc2)CCC1 + Cn1cc(/C=C2\C(=O)Nc3cccnc32)c2ccccc21 [GW441756] (first compound 0.4 µM, partner dose 0.4 µM) | 169
15 | Cn1cnc2c(F)c(Nc3ccc(Br)cc3Cl)c(C(=O)NOCCO)cc21 [selumetinib] + O=C(Nc1cccc(Cl)c1)Nc1ncc(CCNc2ncnc3ccsc23)s1 [SNS314] (first compound 0.015 µM, partner dose 0.0008 µM) | 112

Entries 3–4 from above:
Row | SMILES | cleaved PARP positive nuclei fraction [%]
3 | CN(c1ncccc1CNc1nc(Nc2ccc3c(c2)CC(=O)N3)ncc1C(F)(F)F)S(C)(=O)=O + O=C(O)C(=O)Nc1sc2c(c1C(=O)O)CCNC2 [TCS401] (first compound 0.08 µM, partner dose 1.66667 µM) | 123
4 | NC1(c2ccc(-c3nc4ccn5c(=O)[nH]nc5c4cc3-c3ccccc3)cc2)CCC1 + COc1cc2c(Oc3ccc4[nH]c(C)cc4c3F)ncnc2cc1OCCCN1CCCC1 [cediranib] (first compound 0.4 µM, partner dose 0.4 µM) | 178
